No constants are given. Whether binding was seen depends on the method and setting. A result given as binding can be weak or reduced; the word gives no strength.
Molecular target: GmHXK2 (soybean hexokinase 2) in the pGBKT7 bait vector (soybean (Glycine max))
Experiment: two-hybrid; GmHXK2 in pGBKT7 (bait) and GmPMM in pGADT7 (prey) co-transformed into Y2HGold yeast; growth on SD/-Leu/-Trp and SD/-Ade/-His/-Leu/-Trp; empty-vector controls showed no self-activation

- binding: binds
B1: GmPMM (soybean phosphomannomutase) in the pGADT7 prey vector (enzyme, UniProt Q1W376 1-247)
chain: MAARRPGLIALFDVDGTLTAPRKVVTPEMLTFMQELRKVVTVGVVGGSDLIKISEQLGSTVTNDYDYVFSENGLVAHKEGKLIGTQSLKSFLGEEKLKEFINFTLHYIADLDIPIKRGTFIEFRSGMLNVSPIGRNCSQEERDEFEKYDKVHNIRPKMVSVLREKFAHLNLTFSIGGQISFDVFPQGWDKTYCLRYLDGFNEIHFFGDKTYKGGNDHEIYESERTVGHTVTSPDDTVKQCKSLFLEN
